Laboratory results as given in PubChem BioAssay AID504834 (National Center for Advancing Translational Sciences (NCATS), 2011).
Hit rate of the full screen: of about 320,000 compounds, about 22,000 (6.9%) were called active. Inconclusive results, whose numbers are uncertain, are shown with a selection of clear calls. Calls follow the shape of the dose curve; as a rule, active = well fitted inhibition curve with a large enough effect; inconclusive = small, poorly fitted or top-dose-only effect, or another doubt; inactive = no such curve, though single readings can be large or run the other way. Potencies of inconclusive entries are doubtful fits and often do not repeat.

Experiment: Primary qHTS for delayed death inhibitors of the malarial parasite plastid, 96 hour incubation
Details: P. falciparum luciferase reporter growth; series mostly up to 28.7 µM
Procedure, shortened: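 Readout is luminescence from an integrated firefly luciferase in P. falciparum. Red cells, 2% hematocrit and 0.05% parasitemia final, were cultured with compound through two parasite generations (96 hours) at 37 C, 5% CO2.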
Potency is read from the fitted curve at half-maximal effect.

Compound	Potency
c1ccc2c(c1)ncn2CCn1cnc2ccccc21	inactive
Cc1cc(C)nc(N/N=C/c2cc3c(cc2[N+](=O)[O-])OCO3)n1	inactive
CCc1ccc(NC(=O)NNC(=O)c2ccc3ccccc3c2O)cc1	inactive
O=C(Sc1cccc2cccnc12)c1ccccc1Br	active: 4.65 µM
Cc1cc(NS(=O)(=O)c2ccc(NC(=O)c3ccc(Cl)cc3[N+](=O)[O-])cc2)no1	inconclusive: 18.5 µM [inhibitor, single point]
CC(N)CCCC(C)(C)O (stereo not drawn)	inactive
O=C(Nc1ccc2c(c1)OCCO2)c1ccc(Cl)cc1	inconclusive: 11.7 µM [inhibitor, single point]
O=C(O)c1ccc(CSc2nc3ccccc3c(=O)n2-c2ccccc2)cc1	inconclusive: 3.7 µM [inhibitor, full curve]
COC(=O)c1cc2sccc2n1CC(=O)Nc1cccc(SC)c1	active: 3.29 µM
CCOC(=O)N1CCC(NC(=O)C2CCN(S(=O)(=O)c3c(C)noc3C)CC2)CC1	inactive
COc1ccc(NC(=O)CCCCCN2C(=O)[C@@H]3Cc4ccccc4CN3C2=O)cc1Cl	active: 11.7 µM
Brc1ccc(CNc2nc3ccccc3n2CCN2CCCCC2)cc1	active: 13.1 µM
Cn1c(SCC(=O)NC2(C#N)CCCCC2)nnc1-c1cccnc1	inactive
C/C(=N\NC(=O)c1cc(C)[nH]n1)C(C)(C)C	inconclusive: 18.5 µM [inhibitor, single point]
COC(=O)NCC12CC3CC(C1)CC(CNC(=O)OC)(C3)C2	inconclusive: 7.38 µM [inhibitor, partial curve, poor fit]
CC(=O)c1c(C)[nH]c(C(=O)Nc2cccc(S(=O)(=O)N3CCCCC3)c2)c1C	active: 9.28 µM
O=C(CCCn1c(=O)[nH]c2ccsc2c1=O)N1CCN(Cc2ccc3c(c2)OCO3)CC1	inconclusive: 18.5 µM [inhibitor, single point]
CCOc1[nH]n(-c2ccc(Cl)cc2)c(=O)c1C=Nc1ccc(OC)cc1	inconclusive: 20.8 µM [inhibitor, partial curve, poor fit]
Cc1ccc(S(=O)(=O)/C(C#N)=C/c2c(Oc3ccc(Cl)cc3)nc3c(C)cccn3c2=O)cc1	inconclusive: 2.94 µM [inhibitor, partial curve, poor fit]
CCOc1ccc(S(=O)(=O)Nc2ccccc2SC)cc1	inactive
O=C(N/N=C/c1cn(-c2ccccc2)nc1-c1cc2ccccc2o1)c1cccnc1	inconclusive: 2.94 µM [inhibitor, full curve, poor fit]
O=S(=O)(c1ccccc1Cl)N1CCC(O)(c2ccc3c(c2)OCO3)CC1	active: 2.94 µM
CCN(CC)C(C)C#CCC(c1ccccc1)c1ccccc1 (stereo not drawn)	inconclusive: 13.1 µM [inhibitor, partial curve, poor fit]
CC(C)COC(=O)Nc1nnc(SCCOc2ccccc2)s1	inactive
O=C(N(c1ccccc1)c1ccccc1)N(c1ccccc1)c1ccccc1	inconclusive: 18.5 µM [inhibitor, single point]

Compound	Potency
CC(/C=N/NC(=O)c1cc(-c2ccc(Cl)cc2)nc2ccccc12)=C\c1ccco1	inconclusive: 18.5 µM [inhibitor, single point]
Oc1ccccc1/C=N/NP(=S)(c1ccccc1)c1ccccc1	inconclusive: 9.28 µM [inhibitor, partial curve, poor fit]
O=C(O)c1ccccc1C(=O)NCc1ccc2c(c1)OCO2	inactive
Cc1cc(C(F)(F)F)n(-c2nc(C(=O)NN)cs2)n1	active: 7.38 µM
CCCc1nnc(NC(=O)CCC(=O)N2CCN(c3nc(C)cc(C)n3)CC2)s1	inconclusive: 2.33 µM [inhibitor, full curve]
O=C(OCC#CCSc1nnc(-c2cccc3ccccc23)o1)c1cnc[nH]1	inconclusive: 13.1 µM [inhibitor, partial curve, poor fit]
CC(C)(C)NS(=O)(=O)c1ccc(CCC(=O)NCc2ccccn2)cc1	inactive
COc1ccc(OC)c(S(=O)(=O)NCC(c2cccs2)N2CCc3ccccc3C2)c1 (stereo not drawn)	inconclusive: 0.0131 µM [inhibitor, full curve, poor fit]
CCOC(=O)C1=C2NC(=O)c3ccccc3N2C(=O)C1	inactive
CCN(CCNC(=O)C1CCN(S(=O)(=O)CC)CC1)c1ccccc1	inconclusive: 10.4 µM [inhibitor, single point]
COc1ccc(NC(=O)CN2C(=O)COc3ccc(S(=O)(=O)N4CCCCC4)cc32)c(OC)c1	inconclusive: 5.22 µM [inhibitor, partial curve]
CCOC(=O)[C@H]1CCC[C@@H](NS(=O)(=O)c2ccc(NC(C)=O)cc2)C1	inconclusive: 10.4 µM [inhibitor, partial curve]
O=C(Nc1ccc(Oc2ccccc2)cc1)C1CCN(c2c3c(nc4ncnn24)CCC3)CC1	inactive
O=C(Cc1c(Cl)cccc1Cl)N/N=C/c1cccnc1	inactive
Cc1ccc(N2C(=O)NC(=O)/C(=C/c3cnn(-c4ccc(C)cc4)c3)C2=O)cc1	inactive
O=C(NCc1ccco1)C1CCN(c2ccc(N3CCOCC3)nn2)CC1	inconclusive: 1.04 µM [inhibitor, full curve, poor fit]
O=C(COc1ccc2c(c1)C(=O)CC1(CCCCC1)O2)NCc1ccccn1	inconclusive: 2.94 µM [inhibitor, single point]
Cc1ccccc1-n1c(=S)[nH]c2nc3c(cc2c1=O)COC(C)(C)C3	inconclusive: 10.4 µM [inhibitor, single point]
COc1ccc(CNC(=O)c2c(O)c3cc(OC)c(OC)cc3[nH]c2=O)cc1OC	inconclusive: 18.5 µM [inhibitor, single point]
O=C(CSc1nnnn1-c1ccccc1)N1CCNC1=O	inconclusive: 18.5 µM [inhibitor, single point]
Cc1ccc(S(=O)(=O)N(CC2CO2)c2cc(Cl)ccc2Cl)cc1 (stereo not drawn)	inactive
O=C1CC(c2ccccc2)c2cc(O)ccc2O1 (stereo not drawn)	active: 10.4 µM
CCC(C)(C)NC(=O)c1ccc2c(c1)N(CC(=O)N1CCCC1)C(=O)C(C)(C)O2	inactive
COc1nccnc1NS(=O)(=O)c1ccc(N)cc1	inconclusive: 9.53 µM [inhibitor, partial curve]
Cc1c(NC(=O)CSC(=S)N2CCCC2)c(=O)n(-c2ccccc2)n1C	inconclusive: 3.7 µM [inhibitor, single point]

Compound	Potency
CC(=O)/C(=N\Nc1ccccc1Cl)Sc1cccc2cccnc12	inactive
Cc1cccc(-n2c(Cn3nc(C)c([N+](=O)[O-])c3C)n[nH]c2=S)c1	inconclusive: 0.928 µM [inhibitor, full curve, poor fit]
C[C@H](NC(=O)c1nc[nH]c1C(=O)N[C@@H](Cc1ccccc1)C(=O)OC(C)(C)C)c1ccccc1	inconclusive: 5.22 µM [inhibitor, partial curve, poor fit]
Cc1ccc(CNC(=O)COC(=O)C2CC2)cc1	inactive
Cc1ccccc1NC(=O)Cc1nc(COC(=O)c2ccc(S(C)(=O)=O)c([N+](=O)[O-])c2)cs1	inconclusive: 14.7 µM [inhibitor, single point]
Cc1ccc(N2CC(NC(=O)C3CC3)CC2=O)cc1 (stereo not drawn)	inactive
Cc1ccc(C)c(NC(=O)Cc2ccc(S(=O)(=O)N3CCCCC3)s2)c1	inconclusive: 18.5 µM [inhibitor, partial curve, poor fit]
COc1ccccc1NC(=O)N(Cc1ccc2c(c1)OCO2)Cc1nc2ccccc2c(=O)[nH]1	inconclusive: 1.85 µM [inhibitor, partial curve, poor fit]
CCOC(=O)C1=C(C)N(C)C(=S)NC1c1ccccc1Cl (stereo not drawn)	inconclusive: 14.7 µM [inhibitor, single point]
COC(=O)c1ccc(C)c(NC(=O)c2nn(C)c(=O)c3ccccc23)c1	active: 13.1 µM
Cc1ccccc1NC(=S)NC(C)C(c1cccs1)N1CCOCC1 (stereo not drawn)	inconclusive: 13.1 µM [inhibitor, partial curve]
Cc1ccc(C2=NNC(=O)C(P(=O)(c3ccccc3)c3ccccc3)C2)cc1 (stereo not drawn)	inconclusive: 7.38 µM [inhibitor, partial curve, poor fit]
COCCn1c(-c2ccccc2)nc2ccccc21	inactive
Cc1noc(NS(=O)(=O)c2ccc(NC(=O)CC34CC5CC(CC(Br)(C5)C3)C4)cc2)c1C	inactive
COc1ccc2oc(=O)c(C(=O)NC3CCCCCC3)cc2c1	inconclusive: 4.15 µM [inhibitor, single point]
O=C(Nc1ccc(N2CCN(C(=O)c3ccccc3)CC2)c(Cl)c1)c1ncn[nH]1	inconclusive: 11.7 µM [inhibitor, partial curve, poor fit]
O=C(/C=C/Nc1cccc(C(F)(F)F)c1)c1ccc(Oc2ncccn2)cc1	inactive
C=CCOc1ccc(CNCC2CCCO2)cc1 (stereo not drawn)	inactive
CCn1ncc(CN2CCN(Cc3cccc(OC)c3)C(CCO)C2)c1C (stereo not drawn)	active: 7.38 µM
Cc1cc(NC(=O)CSc2nnc3c4c(C)c(C)sc4ncn23)no1	inconclusive: 11.7 µM [inhibitor, single point]
COc1ccc(-c2nc3ccccn3c2NCc2ccc3c(c2)OCO3)cc1	inactive
CCN(C(=O)CSc1nnc(COc2cccc(C)c2)o1)c1nc(C)cs1	inconclusive: 7.38 µM [inhibitor, partial curve]
COc1ccccc1CNC(=O)C1CCN(S(=O)(=O)c2ccc3nc4c(c(C(=O)O)c3c2)CCCC4)CC1	inactive

Some of the entries so far, with bars between the fields:
Compound | Potency
COc1ccc(CNC(=O)c2c(O)c3cc(OC)c(OC)cc3[nH]c2=O)cc1OC | inconclusive: 18.5 µM [inhibitor, single point]
O=C(CSc1nnnn1-c1ccccc1)N1CCNC1=O | inconclusive: 18.5 µM [inhibitor, single point]
Cc1ccc(S(=O)(=O)N(CC2CO2)c2cc(Cl)ccc2Cl)cc1 (stereo not drawn) | inactive
O=C1CC(c2ccccc2)c2cc(O)ccc2O1 (stereo not drawn) | active: 10.4 µM
CCC(C)(C)NC(=O)c1ccc2c(c1)N(CC(=O)N1CCCC1)C(=O)C(C)(C)O2 | inactive
COc1nccnc1NS(=O)(=O)c1ccc(N)cc1 | inconclusive: 9.53 µM [inhibitor, partial curve]
Cc1c(NC(=O)CSC(=S)N2CCCC2)c(=O)n(-c2ccccc2)n1C | inconclusive: 3.7 µM [inhibitor, single point]
CC(=O)/C(=N\Nc1ccccc1Cl)Sc1cccc2cccnc12 | inactive
Cc1cccc(-n2c(Cn3nc(C)c([N+](=O)[O-])c3C)n[nH]c2=S)c1 | inconclusive: 0.928 µM [inhibitor, full curve, poor fit]
C[C@H](NC(=O)c1nc[nH]c1C(=O)N[C@@H](Cc1ccccc1)C(=O)OC(C)(C)C)c1ccccc1 | inconclusive: 5.22 µM [inhibitor, partial curve, poor fit]
Cc1ccc(CNC(=O)COC(=O)C2CC2)cc1 | inactive
Cc1ccccc1NC(=O)Cc1nc(COC(=O)c2ccc(S(C)(=O)=O)c([N+](=O)[O-])c2)cs1 | inconclusive: 14.7 µM [inhibitor, single point]
Cc1ccc(N2CC(NC(=O)C3CC3)CC2=O)cc1 (stereo not drawn) | inactive
Cc1ccc(C)c(NC(=O)Cc2ccc(S(=O)(=O)N3CCCCC3)s2)c1 | inconclusive: 18.5 µM [inhibitor, partial curve, poor fit]
COc1ccccc1NC(=O)N(Cc1ccc2c(c1)OCO2)Cc1nc2ccccc2c(=O)[nH]1 | inconclusive: 1.85 µM [inhibitor, partial curve, poor fit]
